Measured data: PubChem BioAssay AID1508597 (Cure First, 2020)
This is an unselected part of the about 2,100 reagents, under one of the conditions tested. 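Calls flag viability under 80% in either arm, not effects specific to rucaparib; the reference for percent is not stated.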 A number with no mark means an inactive call. Not stated in the record: the 100% reference.

Assay: 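Survival screen with siRNA in ovarian cancer cells derived from patients, with or without rucaparib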 (primary screen)
Cell system: human ovarian carcinoma lines grown from tumours: OCI-P5x (papillary serous) and OCI-C5x (clear cell)
Knock-down reagent: siRNA pool against human genes, 1.25 pmol siRNA per well
Time to read-out: 72 h or 96 h, depending on the cell culture
Conditions: rucaparib 20 µM (about IC30) or vehicle, present until read-out
Rucaparib or vehicle: Vehicle
Cell line: OCI-C5x (clear cell)
Measurement: 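Luminescent ATP-based viability assay read 72 or 96 h after transfection, depending on culture, given as normalised percent viability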
Direction: viability, normalised: higher = more viable cells remaining
Active means: 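Active when normalised viability falls below 80 percent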
Meaning of the calls: active = viability under 80%; inactive = viability 80% or more

no.	target	technical replicate	viability, normalised (%)
1	MIER3 (MIER family member 3)	1	55.2 (active)
2	MIER3 (MIER family member 3)	2	65.3 (active)
3	MIER3 (MIER family member 3)	3	56.7 (active)
4	ACVR1 (activin A receptor type 1)	1	67 (active)
5	ACVR1 (activin A receptor type 1)	2	66.5 (active)
6	ACVR1 (activin A receptor type 1)	3	61.8 (active)
7	RIOK2 (RIO kinase 2)	1	36.5 (active)
8	RIOK2 (RIO kinase 2)	2	39 (active)
9	RIOK2 (RIO kinase 2)	3	46.5 (active)
10	SERPINE2 (serpin family E member 2)	1	38.2 (active)
11	SERPINE2 (serpin family E member 2)	2	71.8 (active)
12	SERPINE2 (serpin family E member 2)	3	53.7 (active)
13	TNKS (tankyrase)	1	59.9 (active)
14	TNKS (tankyrase)	2	64.2 (active)
15	TNKS (tankyrase)	3	61.3 (active)

2 successive reagents already listed:
no.	target	technical replicate	viability, normalised (%)
3	MIER3 (MIER family member 3)	3	56.7 (active)
4	ACVR1 (activin A receptor type 1)	1	67 (active)

Additional results:
no.	target	technical replicate	viability, normalised (%)
16	CDC42BPA (CDC42 binding protein kinase alpha)	1	60.8 (active)
17	CDC42BPA (CDC42 binding protein kinase alpha)	2	53.3 (active)
18	CDC42BPA (CDC42 binding protein kinase alpha)	3	51 (active)
19	ADAM17 (ADAM metallopeptidase domain 17)	1	48.7 (active)
20	ADAM17 (ADAM metallopeptidase domain 17)	2	36.6 (active)
21	ADAM17 (ADAM metallopeptidase domain 17)	3	45.2 (active)
22	XRCC5 (X-ray repair cross complementing 5)	1	128
23	XRCC5 (X-ray repair cross complementing 5)	2	57 (active)
24	XRCC5 (X-ray repair cross complementing 5)	3	48 (active)
